# Measured values from PubChem BioAssay (EPA / NIEHS).
# This list was built around the results that the source calls inconclusive (neither active nor inactive); the mix of calls is not that of the screen. Potencies beside an inconclusive call are fits to weak or partial responses and may not hold up. Calls of active or inactive are those of the source. The calls were made as follows: active = hit-call score of the fitted dose curve at least 0.9, where 1 is the maximum; inconclusive = response in the unintended direction; inactive = score below 0.9.
# Tested on: Sodium/Iodide Symporter (NIS), SLC5A5 (gene 6528)
# Test: CPHEA_Stoker_NIS_Inhibition_RAIU: CPHEA's Radioactive Iodide Uptake (RAIU) Assay for Sodium/Iodide Symporter (NIS) Inhibition, Stoker and Laws Labs (AID 2283841)
# Method in brief: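 Iodide uptake read as CPM of intracellular 125I (final 329 pM) after 2 h room-temperature exposure in HEPES-buffered HBSS, pH 7.4. Human NIS-expressing HEK293T cells; six concentrations 0.001–100 uM, 0.5% DMSO, normalised to DMSO wells.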
Compound,outcome,AC50
CCN(CC)CCOC(=O)c1ccc(N)cc1,inactive,–
C=CC(=O)OCC(F)(F)C(F)(F)C(F)(F)COC(=O)C=C,inactive,–
Cc1oc2c(NC(=O)c3c(Cl)cccc3Cl)cccc2c1C(C)(C)O,–,inconclusive: 0.0588 nM
CN[C@H]1CC[C@@H](c2ccc(Cl)c(Cl)c2)c2ccc(S(N)(=O)=O)cc21,–,inconclusive: 0.0301 nM
OC(O)C(F)(F)C(F)(F)F,–,inconclusive: 5.95 nM
CC(C)(C)c1cccc(C(C)(C)C)c1O,–,inconclusive: 0.332 nM
CCOC(=O)C(C)Oc1ccc(Oc2nc3ccc(Cl)cc3o2)cc1 (centres undefined),inactive,–
CCO[Si](CCC(F)(F)C(F)(F)C(F)(F)C(F)(F)C(F)(F)C(F)(F)F)(OCC)OCC,–,inconclusive: 1.16 nM
O=C(N[C@@H](Cc1ccccc1)[C@@H](O)C(=O)N1C[C@@H](O)[C@@H](O)C1)c1cc2cc(Cl)ccc2[nH]1,–,inconclusive: 0.0887 nM
CCCCN1C(=O)[C@@H]([C@H](O)C2CCCCC2)NC(=O)C12CCN(Cc1ccc(Oc3ccc(C(=O)O)cc3)cc1)CC2,–,inconclusive: 0.13 nM
C=CCOC(=O)c1ccc(C(=O)OCC=C)c(C(=O)OCC=C)c1,–,active: 10200 nM
CS(=O)(=O)c1ccc([C@@H](CC2CCCC2)C(=O)Nc2cnccn2)cc1Cl,–,inconclusive: 0.206 nM
O=S(=O)(OCCOC(F)(F)F)C(F)(F)F,inactive,–
CCOC(=O)c1ccc(C2CCC(NC[C@H](O)COc3ccc(O)c(NS(C)(=O)=O)c3)CC2)cc1 (some centres undefined),–,inconclusive: 0.674 nM
